Laboratory results reported in patent US20240285788A1, “CONJUGATE OF ANTIBODY AND FUNCTIONAL SUBSTANCE OR SALT THEREOF, AND ANTIBODY DERIVATIVE AND COMPOUND USED IN PRODUCTION OF THE SAME OR SALTS THEREOF” (Ajinomoto Co., Inc., priority 2021, published 2024).
Some of these results come from one statement about several compounds together.

assay: Test for stability of ADC mimic in mouse plasma (dropped fluorescent molecules by HPLC); assay type: in vitro ADME; settings: Day = 4

Structure (SMILES) | stability as compared with the ADC mimic synthesized in Comparative Example 1
CCCCCNC(=O)CCSC1CC(=O)N(CCCCCNC(=O)C(OC(=O)N(C)CC(=O)NCc2ccc3ccc4cccc5ccc2c3c45)c2ccc(NC(=O)[C@H](CCCNC(N)=O)NC(=O)[C@@H](NC(=O)[C@H](CCC(=O)O)NC(=O)OCc3ccccc3)C(C)C)cc2)C1=O (stereo partly drawn) [ADC mimic 2] | ≥ 3 times
CCCCCNC(=O)CCSC1CC(=O)N(CCCCCNC(=O)C(OC(=O)N(C)CC(=O)NCc2ccc3ccc4cccc5ccc2c3c45)c2ccc(NC(=O)[C@H](CCCNC(N)=O)NC(=O)[C@@H](NC(=O)[C@H](CCC(=O)O)NC(=O)[C@H](CCC(=O)O)NC(C)=O)C(C)C)cc2)C1=O (stereo partly drawn) [ADC mimic 3] | ≥ 10 times
CCCCCNC(=O)CCSC1CC(=O)N(CCCCCNC(=O)C(OC(=O)N(C)CC(=O)NCc2ccc3ccc4cccc5ccc2c3c45)c2ccc(NC(=O)[C@H](CCCNC(N)=O)NC(=O)[C@@H](NC(=O)[C@H](CCC(=O)O)NC(=O)CCC(=O)O)C(C)C)cc2)C1=O (stereo partly drawn) [ADC mimic 4] | ≥ 10 times
CCCCCNC(=O)CCSC1CC(=O)N(CCCCCNC(=O)C(OC(=O)N(C)CC(=O)NCc2ccc3ccc4cccc5ccc2c3c45)c2ccc(NC(=O)[C@H](CCCNC(N)=O)CC(=O)[C@@H](NC(=O)[C@H](CCC(=O)O)NC(C)=O)C(C)C)cc2)C1=O (stereo partly drawn) [ADC mimic 1] | ≥ 3 times

same assay, conditions: Day = 4, Example 24

Structure (SMILES) | stability as compared with the ADC mimic synthesized in Comparative Example 1
CCCCCNC(=O)CCSC1CC(=O)N(CCCCCNC(=O)C(OC(=O)N(C)CC(=O)NCc2ccc3ccc4cccc5ccc2c3c45)c2ccc(NC(=O)[C@H](CCCNC(N)=O)NC(=O)[C@@H](NC(=O)[C@H](CCC(=O)O)NC(=O)[C@H](CCC(=O)O)NC(=O)[C@H](CCC(=O)O)NC(=O)[C@H](CCC(=O)O)NC(C)=O)C(C)C)cc2)C1=O (stereo partly drawn) [ADC mimic 24] | ≥ 10 times
CCCCCNC(=O)CCSC1CC(=O)N(CCCCCNC(=O)C(OC(=O)N(C)CC(=O)NCc2ccc3ccc4cccc5ccc2c3c45)c2ccc(NC(=O)[C@H](CCCNC(N)=O)NC(=O)[C@@H](NC(=O)[C@H](CC(=O)O)NC(C)=O)C(C)C)cc2)C1=O (stereo partly drawn) [ADC mimic 22] | ≥ 10 times
